According to publication PMC12040169 (PLOS Biology, 2025):
Some of the results follow.

tested on: T1, CTL2-GFP (C. trachomatis L2/434/Bu, GFP-expressing); design: species or system HeLa; Intracellular C. trachomatis growth in HeLa cells, bulk GFP fluorescence relative to DMSO; settings: bulk GFP, single well; 28.5 h, 10 µM; inhibitor
T1 construct: L2/434/Bu, GFP-expressing

Compound | % of control remaining [%]
COc1ccc(OC(=O)C2COc3ccccc3O2)cc1 (centres unmarked) [CBK131816] | 102.474
Cc1cccc(NC(=O)c2cc(NC(=O)C3CCCCC3C(=O)O)ccc2N2CCCCC2)c1 (centres unmarked) [CBK267332] | 108.599
CC(C)NC(=S)NC(=O)C1CCC1 [CBK010718] | 131.148
COC(=O)C(CC(=O)c1ccc(Br)cc1)n1cccn1 (centres unmarked) [CBK269338] | 113.713
O=c1oc2ccccc2n1C1CCN(Cc2nc3ccccc3n2Cc2ccccc2)CC1 [CBK286176] | 114.988
CCOC(=O)Cn1c(CCC(=O)O)ccc1-c1ccc(F)cc1 [CBK265916] | 187.404
Oc1ccc(CCNc2ncnc3[nH]cnc23)cc1 [CBK017724C] | 96.1543
O=c1c(N2CCNCC2)nccn1CCc1cccs1 [CBK050382T] | 126.976
CCN(Cc1ccncc1)C(=O)Nc1ccc(N(CC)CC)cc1 [CBK155141] | 121.717
COc1ccccc1N1CCN(C[C@H]2C[N@@]3CC[C@H]2C[C@@H]3CNS(C)(=O)=O)CC1 [CBK288770] | 113.775
Cc1nc(SCc2cccc(C(=O)O)c2)nc2c1CCCC2 [CBK266997] | 143.913
O=C(Cn1cnc2ccc([N+](=O)[O-])cc2c1=O)Nc1ccc(C(=O)O)cc1 [CBK297542] | 153.882
O=C(Nc1ccccc1-c1nc2ccccc2s1)c1cc(Br)ccc1Cl [CBK266280] | 190.198
Cc1cc(OC(C)C(=O)N(Cc2cccs2)C2CCS(=O)(=O)C2)cc(C)c1Cl (centres unmarked) [CBK293962] | 115.541
CC(C)NC(=O)Cn1nc(-c2cc3c(s2)CCC3)oc1=O [CBK283801] | 129.58
COc1nc(-c2ccc(N(C)C)nc2)nn1C [CBK307317] | 143.682
CC(=O)OC(C(=O)N1CCCCCC1)c1ccc(Br)cc1 (centres unmarked) [CBK007027] | 100.637
Cc1ccc(COCSc2nc3ccccc3n2CC(O)CO)cc1C (centres unmarked) [CBK021195] | 129.813
Cn1c(=O)c2c(ncn2CC(=O)Nc2ccc(Cl)cc2Cl)n(C)c1=O [CBK133227] | 130.716
Cc1nc(-c2ccco2)nc2sc(C(=O)NCc3nnc4ccccn34)c(C)c12 [CBK297773] | 140.712
CCOC(=O)C(C)N1C(=O)S/C(=C/c2ccc(Oc3ccc([N+](=O)[O-])cn3)cc2)C1=O (centres unmarked) [CBK265114] | 160.473
CCN1CCN(C(=O)CCNC(=O)c2cccc(OC)c2)CC1 [CBK307580] | 114.417
OCCCNC(=S)Nc1ccc(Cl)cc1Cl [CBK265264] | 124.581
O=c1cc(N2CCCCC2)cnn1Cc1nccs1 [CBK307678] | 102.851
CCS(=O)(=O)N1CCC2(C=Cc3cc(F)ccc3O2)CC1 [CBK284747] | 74.5007

Compound | % of control remaining [%]
COc1ccc(-n2nc3cc(C)c(NC(=O)c4ccc(-c5ccc([N+](=O)[O-])cc5OC)o4)cc3n2)cc1 [CBK263766] | 123.754
CCCC1COC(c2ccc(C#N)cc2)OC1 (centres unmarked) [CBK033941] | 96.7884
COc1ccccc1C(=O)N1CCC(Cc2ccc(-c3ccccc3)cc2)(C(N)=O)CC1 [CBK285774] | 139.583
CC(C)[C@H]1CN(Cc2ccco2)CCN1Cc1ccccn1 [CBK284275] | 83.5575
O=C1c2ccccc2C(=O)N1Cc1ccc(S(=O)(=O)NCc2ccc3c(c2)OCO3)cc1 [CBK264180] | 134.164
O=c1c2sccc2[nH]c(=S)n1CCc1ccccc1 [CBK288486] | 87.6925
NS(=O)(=O)c1ccc(C(=O)Nc2cnc(-c3ccc(F)cc3)c(-c3ccsc3)n2)cc1 [CBK036998] | 179.176
COc1ccc(-c2nnc(SCCC(=O)O)[nH]2)cc1 [CBK300506] | 152.985
NC(=O)C1(Cc2ccccc2-c2ccccc2)CCN(C(=O)CCc2ccccc2)CC1 [CBK285595] | 121.81
O=C(CCc1nc2sc3c(c2c(=O)[nH]1)CCCC3)N1CCCC1 [CBK306069] | 148.469
Cc1ccc(S(=O)(=O)NCCNc2ccc(C(F)(F)F)cc2[N+](=O)[O-])cc1 [CBK264945] | 121.781
COc1ccc(C(C)C)cc1-c1cncc(N2CCN(c3ccccc3C#N)CC2)n1 [CBK037927] | 104.51
Nc1ncc(-c2ccc(C(=O)N3CCOCC3)cc2)nc1C(=O)NC1CCCC1 [CBK149155] | 77.0227
COc1ccc(/N=C2\S[C@H]3[C@H]([C@@H](O)[C@H](O)C[C@@H]3C(N)=O)N2Cc2cccs2)cc1 [CBK288943] | 121.024
CCOC(=O)C1CCN(S(=O)(=O)c2c(C)noc2C)CC1 [CBK051112] | 144.682
O=C(c1ccc(NC2CC2)nc1)N1CCC(CN2CCOCC2)CC1 [CBK305970] | 70.8568
Cc1cc(C)nc(Nc2noc(-c3ccccc3)n2)n1 [CBK269971] | 131.22
CC(=O)OCc1ccc(CN2CCCCCC2c2cc(C)no2)o1 (centres unmarked) [CBK283007] | 127.166
CCCn1c(O)cc(=O)nc1SCC(=O)NCc1ccc(OC)c(OC)c1 [CBK295592] | 127.55
COc1ccc2[nH]c3c(c2c1)CCNC31CCN(Cc2ccc(S(C)(=O)=O)cc2)CC1 [CBK039753] | 133.452
O=C(NCc1cccnc1)c1ccc(N2CCN(C(=O)c3ccccc3C(F)(F)F)CC2)nn1 [CBK153215] | 100.76
Cc1noc(C)c1NC(=O)c1cscn1 [CBK200397] | 125.673
CNC(=O)CSc1ncnc2c1cnn2-c1ccc(F)cc1 [CBK287633] | 99.039
Cn1c(/N=N/c2c(-c3ccccc3)n(C)c3ccccc23)nc2ccccc21 [CBK262114] | 100
Nc1nonc1-n1nnc(C(=O)O)c1-c1cccs1 [CBK266674] | 119.939

Shown in markdown: two of the compounds above.

| Compound | % of control remaining [%] |
| --- | --- |
| Cc1ccc(COCSc2nc3ccccc3n2CC(O)CO)cc1C (centres unmarked) [CBK021195] | 129.813 |
| COc1ccccc1C(=O)N1CCC(Cc2ccc(-c3ccccc3)cc2)(C(N)=O)CC1 [CBK285774] | 139.583 |
